PubChem BioAssay AID602196 | INSERM, 2012
Purpose: 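Knock-downs that protect lung cancer cells from cisplatin or sensitise them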. Cells: human A549 lung cancer cells. Reagents: siRNA pair against human genes. Timing: 48 h transfection before cisplatin; time from cisplatin to read-out not stated. Treatment: cisplatin at a dose killing half of control-siRNA cells; exact dose and duration not given. Detection: 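Cisplatin cell death as a shift from the 50% death seen with control siRNA; siRNAs toxic or growth-blocking alone scored 0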. Direction: two-siRNA summed score (-2 to +2): higher = both siRNAs protect from cisplatin killing; -2 means both sensitise; mean protection from cisplatin (shift in death) and protection from cisplatin (shift in death), siRNA C and protection from cisplatin (shift in death), siRNA D: higher = protection from cisplatin killing. Hit rule: 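Each siRNA scores 0 if harmful alone by LDH or WST-1, otherwise +1 if it reduces and -1 if it increases cisplatin killing; a gene is active when both siRNAs agree (sum +2 or -2)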. Meaning of the calls: active = both siRNAs shift cisplatin killing the same way; inactive = no consistent shift, or siRNA harmful alone.
In all, the deposit lists about 23,000 reagents; below is a part drawn at random. Over the whole deposit, 455 (2%) were called active. 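Active includes both protection and sensitisation; some change values fall well beyond the stated -50 to +50 range.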 Unmarked entries are inactive. The numbers tell different reagents against one gene apart. The record does not give: the amount of reagent.

target | reagent no. | two-siRNA summed score (-2 to +2) | mean protection from cisplatin (shift in death) (%) | protection from cisplatin (shift in death), siRNA C (%) | protection from cisplatin (shift in death), siRNA D (%)
LOC389773 | 1 | 0 | 8.3 | 1.4 | 15.2
ZCCHC17 | 1 | 0 | 4.2 | 6.7 | 1.8
DNM1P46 | 1 | -1 | -2.7 | -10 | 4.6
TASL | 1 | -1 | -0.4 | -19.4 | 18.6
LOC401530 | 1 | 0 | 10.7 | 19.3 | 2.1
CDC40 | 1 | 0 | 5 | 9.4 | 0.6
OR10H5 | 1 | 0 | 5.5 | -3.7 | 14.7
SPATS2L | 1 | 0 | 5.4 | -6.1 | 17
FARSA | 1 | 0 | -5.1 | -16.2 | 6
TRIP4 | 1 | 2 (active) | 25.9 | 30 | 21.8
CT45A2 | 1 | 0 | 0.2 | -9.4 | 9.8
CLPX | 1 | 0 | -1.9 | 0.6 | -4.4
ARMC6 | 1 | 0 | -5.8 | -2.7 | -9
H3C1 | 1 | 0 | 9 | 10.1 | 7.9
LOC341412 | 1 | 0 | 20.8 | 18.9 | 22.6
LOC402330 | 1 | 1 | 19.3 | 26.8 | 11.7
BMP8A | 1 | -1 | -6.6 | -11.8 | -1.4
LELP1 | 1 | 0 | 3.5 | -0.3 | 7.3
RHOXF2 | 1 | 0 | 19.3 | 14.9 | 23.6
HOXD4 | 1 | 1 | 11.5 | 10.2 | 12.8

Continued; the last 6 above are carried over.
target | reagent no. | two-siRNA summed score (-2 to +2) | mean protection from cisplatin (shift in death) (%) | protection from cisplatin (shift in death), siRNA C (%) | protection from cisplatin (shift in death), siRNA D (%)
LOC341412 | 1 | 0 | 20.8 | 18.9 | 22.6
LOC402330 | 1 | 1 | 19.3 | 26.8 | 11.7
BMP8A | 1 | -1 | -6.6 | -11.8 | -1.4
LELP1 | 1 | 0 | 3.5 | -0.3 | 7.3
RHOXF2 | 1 | 0 | 19.3 | 14.9 | 23.6
HOXD4 | 1 | 1 | 11.5 | 10.2 | 12.8
SNTG1 | 1 | 0 | -1.5 | 2.7 | -5.6
VTN | 1 | 0 | -12.2 | -18.8 | -5.6
ZBED8 | 1 | 0 | -11.1 | -0.9 | -21.4
LOXHD1 | 1 | 0 | -3.1 | -2.4 | -3.7
RPL37A | 1 | 0 | 7.6 | 4.3 | 10.9
VANGL2 | 1 | 0 | 13.5 | 23.6 | 3.4
NUDT6 | 1 | 0 | 2.7 | -10.4 | 15.8
NDFIP2 | 1 | 0 | -3.3 | -10.7 | 4.1
HIP1 | 1 | -1 | -13.3 | -17.4 | -9.3
BRD7 | 1 | 0 | 6.3 | 5.5 | 7.1
LINC01940 | 1 | 2 (active) | 17.2 | 12.8 | 21.7
ELANE | 1 | 0 | 11.4 | 23.3 | -0.5
MTMR7 | 1 | 1 | 11.4 | 12.8 | 10.1
ATP1B4 | 1 | 0 | -0.2 | -6.4 | 6
SLC2A10 | 1 | 0 | 1.1 | -6.1 | 8.4
LOC392546 | 1 | 1 | 8 | 11.6 | 4.3
APEX1 | 1 | 0 | -6.5 | -5.4 | -7.6
OTOP2 | 1 | 0 | 1.9 | 10.8 | -7.1
LLGL1 | 1 | 0 | 15.9 | 22 | 9.7
LOC440498 | 1 | 1 | 11.3 | -7.2 | 29.9
SMR3A | 1 | 0 | 1.1 | 1.3 | 0.9
SMR3A | 2 | 0 | 1.9 | 4 | -0.1
HECTD2 | 1 | 0 | 13.2 | 19.7 | 6.7
MYB | 1 | -1 | -5.1 | 5.5 | -15.8
LOC344371 | 1 | 0 | 8.3 | 9.6 | 7
NPY5R | 1 | 0 | -1.3 | -11 | 8.5
NRBF2 | 1 | 0 | -2.6 | 19.6 | -24.8
AP1G1 | 1 | 0 | 1.6 | -2.6 | 5.7
RNASET2 | 1 | 0 | 2 | 5.3 | -1.2
CD8B | 1 | 0 | 0.8 | -18.5 | 20
CCR6 | 1 | -1 | -12.9 | -1.8 | -24.1
ALAS2 | 1 | 1 | 11.2 | -0.6 | 22.9
H2AC25 | 1 | 0 | 9.5 | -8.3 | 27.4
ANKRD17 | 1 | 0 | 13.6 | 10.3 | 16.9
LINC02991 | 1 | 0 | 0.3 | -5.5 | 6.2
LOC389073 | 1 | 0 | 9.7 | 7.2 | 12.2
LOC391322 | 1 | 0 | 8.6 | 5.4 | 11.7
